{"source": "the RNAGym collection of RNA variant scans (doi:10.1126/science.aae0568)", "parents": {"B1": {"name": "tRNA (parent)", "chain": "GUUCCGUUGGCGUAAUGGUAACGCGUCUCCCUCCUAAGGAGAAGACUGCGGGUUCGAGUCCCGUACGGAACG"}}, "note": "Variants at the floor of the assay are shown more often than the library holds them."}
{"variants_of": "B1", "assay": "yeast fitness relative to wild type (ratio to wild type); higher = fitter; tRNA-Arg(CCU), competitive growth, 37 C, YPD", "procedure,_shortened": "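The tRNA-Arg(CCU) gene variants were made by chemical synthesis with a 3% per-site mutation rate at 69 sites and inserted at the native genomic locus of Saccharomyces cerevisiae. After pooling, the strains were competed in YPD at 37°C for 24 hours in six parallel replicates. Gene amplicons from the start population and each end population were read by 100-nucleotide paired-end sequencing, and Darwinian fitness relative to wild type was taken from genotype frequency changes. Genotypes needed ≥ 100 starting reads, and estimates < 0.5 were set to 0.5.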"}
{"variant": "A20C C30A C33U C34U C49A C62G", "yeast fitness": "≤ 0.5"}
{"variant": "A20C C33A A40G", "yeast fitness": "≤ 0.5"}
{"variant": "A20C C33U G41A G63A", "yeast fitness": "≤ 0.5"}
{"variant": "A20C C34A A37G", "yeast fitness": "≤ 0.5"}
{"variant": "A20C C49A G52A C61U", "yeast fitness": "≤ 0.5"}
{"variant": "A20C C61G A65U", "yeast fitness": "≤ 0.5"}
{"variant": "A20C G38A C49A G58C", "yeast fitness": "≤ 0.5"}
{"variant": "A20C G44C C61U", "yeast fitness": 0.56}
{"variant": "A20C U53C A70C", "yeast fitness": "≤ 0.5"}
{"variant": "A20G A21C G25A G39C C49U A65U", "yeast fitness": "≤ 0.5"}
{"variant": "A20G A21C G39C C49U A65U", "yeast fitness": "≤ 0.5"}
{"variant": "A20G A36U C49G", "yeast fitness": "≤ 0.5"}
{"variant": "A20G A37U G41C C46A", "yeast fitness": "≤ 0.5"}
{"variant": "A20G A40C A42U A43C G48A A70C", "yeast fitness": "≤ 0.5"}
{"variant": "A20G C24U G52A", "yeast fitness": "≤ 0.5"}
{"variant": "A20G C27A C31A C61U", "yeast fitness": "≤ 0.5"}
{"variant": "A20G C27A C46A C62G G67C", "yeast fitness": "≤ 0.5"}
{"variant": "A20G C29A C31A A40C G44A U59A", "yeast fitness": "≤ 0.5"}
{"variant": "A20G C31U G41C A43C C60G", "yeast fitness": "≤ 0.5"}
{"variant": "A20G C49G G52A A57C", "yeast fitness": "≤ 0.5"}
{"variant": "A20G C55U C61A", "yeast fitness": "≤ 0.5"}
{"variant": "A20G G23C A43G G58C U64G", "yeast fitness": "≤ 0.5"}
{"variant": "A20G G23C A69C", "yeast fitness": "≤ 0.5"}
{"variant": "A20G G38A", "yeast fitness": 0.912}
{"variant": "A20G G38U A43C A57U", "yeast fitness": "≤ 0.5"}
{"variant": "A20G U28C C33G G38A U64G", "yeast fitness": "≤ 0.5"}
{"variant": "A20G U32C A40C A42U A43C G48A", "yeast fitness": "≤ 0.5"}
{"variant": "A20G U35A A37G A43U A45C", "yeast fitness": "≤ 0.5"}
{"variant": "A20G U35C G50C A57U", "yeast fitness": "≤ 0.5"}
{"variant": "A20U A21C C27A G41A", "yeast fitness": "≤ 0.5"}
{"variant": "A20U A21C C31A A70U", "yeast fitness": "≤ 0.5"}
{"variant": "A20U A21G C22A C49G", "yeast fitness": "≤ 0.5"}
{"variant": "A20U A21U A57C U64G", "yeast fitness": "≤ 0.5"}
{"variant": "A20U A36G U59A", "yeast fitness": "≤ 0.5"}
{"variant": "A20U A37G", "yeast fitness": 0.892}
{"variant": "A20U A37U C55U", "yeast fitness": "≤ 0.5"}
{"variant": "A20U C22A C27G C34U", "yeast fitness": "≤ 0.5"}
{"variant": "A20U C22A C34A G44A A57C", "yeast fitness": "≤ 0.5"}
{"variant": "A20U C24U A42C C62G", "yeast fitness": 0.735}
{"variant": "A20U C29A C30A U53G C62G", "yeast fitness": "≤ 0.5"}
{"variant": "A20U C30G U47C", "yeast fitness": "≤ 0.5"}
{"variant": "A20U C31A U64G C66A", "yeast fitness": "≤ 0.5"}
{"variant": "A20U C31G C55G C60G C66U A70U", "yeast fitness": "≤ 0.5"}
{"variant": "A20U G23A C31U G39A", "yeast fitness": "≤ 0.5"}
{"variant": "A20U G52A C66U", "yeast fitness": "≤ 0.5"}
{"variant": "A20U U26C C34G A36C C55U A65U", "yeast fitness": "≤ 0.5"}
{"variant": "A20U U35C", "yeast fitness": 0.949}
{"variant": "A20U U54A A70G", "yeast fitness": "≤ 0.5"}
{"variant": "A20U U54C", "yeast fitness": 0.758}
{"variant": "A21C A36U A37G A42C U64A", "yeast fitness": "≤ 0.5"}
{"variant": "A21C C22G C49U", "yeast fitness": "≤ 0.5"}
{"variant": "A21C C22G G38C A69U", "yeast fitness": "≤ 0.5"}
{"variant": "A21C C22G G67U", "yeast fitness": "≤ 0.5"}
{"variant": "A21C C24A A65C", "yeast fitness": "≤ 0.5"}
{"variant": "A21C C24A G56C C60G", "yeast fitness": "≤ 0.5"}
{"variant": "A21C C24G U32A A42C G58C", "yeast fitness": "≤ 0.5"}
{"variant": "A21C C24U C62U G68C", "yeast fitness": "≤ 0.5"}
{"variant": "A21C C29G G50U G68C", "yeast fitness": "≤ 0.5"}
{"variant": "A21C C29U C31G A43U A57U", "yeast fitness": "≤ 0.5"}
{"variant": "A21C C30A C62U A70U", "yeast fitness": "≤ 0.5"}
{"variant": "A21C C30G C66A", "yeast fitness": 0.572}
{"variant": "A21C G41A C61G", "yeast fitness": "≤ 0.5"}
{"variant": "A21C U28A C29U C31G A43U A65U", "yeast fitness": "≤ 0.5"}
{"variant": "A21C U35C G63A A65G", "yeast fitness": "≤ 0.5"}
{"variant": "A21G A37G", "yeast fitness": 0.692}
{"variant": "A21G A45C A57G", "yeast fitness": "≤ 0.5"}
{"variant": "A21G C24G C29A A43U G68C", "yeast fitness": "≤ 0.5"}
{"variant": "A21G C31A A42G A57U", "yeast fitness": "≤ 0.5"}
{"variant": "A21G C31A A65U", "yeast fitness": "≤ 0.5"}
{"variant": "A21G C34A C61A", "yeast fitness": "≤ 0.5"}
{"variant": "A21G C55U", "yeast fitness": 0.704}
{"variant": "A21G G23A C27G A37U G44A", "yeast fitness": "≤ 0.5"}
{"variant": "A21G G25C C27G A42C G68C", "yeast fitness": "≤ 0.5"}
{"variant": "A21G U26C U47G G50C C66A", "yeast fitness": "≤ 0.5"}
{"variant": "A21G U35A A69C", "yeast fitness": "≤ 0.5"}
{"variant": "A21U A37U A45U", "yeast fitness": "≤ 0.5"}
{"variant": "A21U A37U A70U", "yeast fitness": "≤ 0.5"}
{"variant": "A21U A45U C49U", "yeast fitness": "≤ 0.5"}
{"variant": "A21U C22U U32A A57C", "yeast fitness": "≤ 0.5"}
{"variant": "A21U C24G C62G", "yeast fitness": "≤ 0.5"}
{"variant": "A21U C24G G52C", "yeast fitness": "≤ 0.5"}
{"variant": "A21U C27G A45C A69U", "yeast fitness": "≤ 0.5"}
{"variant": "A21U C30U C62G", "yeast fitness": "≤ 0.5"}
{"variant": "A21U C34G A43U", "yeast fitness": "≤ 0.5"}
